{"source": "paper PMC10610214", "about": "(Pharmaceuticals, 2023)", "format": "in vitro ADME, SD rats", "conditions": "SD rat liver microsomes", "description": "The incubation was terminated at different time points by adding 0.5 mL of ice-cold CH3CN. A parallel incubation was performed in the absence of a NADPH-regenerating system with microsomes as the negative control, and the reactions were terminated after the corresponding time incubation. After centrifugation with 12,500 rpm at 4 °C for 10 min, the supernatant was directly analyzed by the HPLC UV systems (Agilent HPLC 1200 instrument). Three independent experiments were performed in triplicate.", "data": [{"smiles": "COc1cc2c(cc1OC)C(=O)C(CC1CCN(Cc3ccccc3)CC1)C2", "note": "(stereo not shown) [Donepezil, reference compound]", "values": [{"measurement": "K", "result": "0.00834 ± 0.00044", "unit": "min⁻¹"}]}]}
